# Reference: the supplement of paper PMC7877785
# ± gives the uncertainty stated by the source. The uncertainty is large for many entries.
# Test: self-splicing fitness, log relative to wild type (ln ratio); higher = more splicing; Tetrahymena group I intron in knt gene, E. coli kanamycin selection, DiMSum; sequences stand for … in CUCUCU…GGAGGGAAAAGUUAUCAGGCAUGCACCUGGUAGCUAGUCUUUAAACCAAUAGAUUGCAUCGGUUUAAAAGGCAAGACCGUCAAAUUGCGGGAAAGGGGUCAACAGCCGUUCAGUACCAAGUCUCAGGGGAAACUUUGAGAUGGCCUUGCAAAGGGUAUGGUAAUAAGCUGACGGACAUGGUCCUAACCACGCAGCCAAGUCCUAAGUCAACAGAUCUUCUGUUGAUAUGGAUGCAGUUCACAGACUAAAUGUCGGUCGGGGAAGAUGUAUUCUUCUCAUAAGAUAUAGUCGGACCUCUCCUUAAUGGGAGCUAGCGGAUGAAGUGAUGCAACACUGGAGCCGCUGGGAACUAAUUUGUAUGCGAAAGUAUAUUGAUUAGUUUUGGAGUACUCGUGGUCG
# Summary of the method: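 Six replicate transformations of E. coli BL21(DE3) with a pET-22b(+) library were grown overnight at 37°C or 30°C. The library randomised all eight P1ex-region intron nucleotides, the intron lying in the knt kanamycin-resistance gene, and plates were LB agar with or without 25 μg/mL kanamycin plus 100 μg/mL carbenicillin, 50 μM IPTG and 0.2% rhamnose. Pooled colonies were amplicon-sequenced on an Illumina HiSeq 2500, and fitness is the DiMSum error-weighted combination of wild-type-normalised replicate fold changes, kanamycin versus none.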
Sequence,self-splicing fitness (ln) (30 °C),self-splicing fitness (ln) (37 °C)
UCGCAGCAAUAUUACGGGCC,-2.06 ± 0.57,-2.07 ± 1.1
GUGGAGCAAUAUUACGCGGA,-2.95 ± 0.52,
UAGGAGCAAUAUUACGACAG,,-0.778 ± 1.4
AUUGAGCAAUAUUACGGGUC,,-1.64 ± 0.66
CUACAGCAAUAUUACGUCCC,-5.26 ± 1,-2.84 ± 0.53
UGAAAGCAAUAUUACGCGGU,-4.28 ± 0.73,
GCAGAGCAAUAUUACGGAAA,-3.06 ± 0.62,
AUAUAGCAAUAUUACGAGAG,-4.7 ± 0.72,
UUCUAGCAAUAUUACGAUAG,-3.61 ± 0.52,
AAGCAGCAAUAUUACGCCAG,-2.67 ± 0.36,-1.43 ± 0.41
UCGGAGCAAUAUUACGUCAU,-3.34 ± 0.74,
ACGAAGCAAUAUUACGUUCG,-1.3 ± 0.083,-0.906 ± 0.11
CGCGAGCAAUAUUACGUGAC,-5.44 ± 0.58,
CGUGAGCAAUAUUACGAAAC,-2.83 ± 0.5,
ACAUAGCAAUAUUACGCAGC,-3.86 ± 0.72,
CAGUAGCAAUAUUACGAAUU,,-3.43 ± 0.52
UUCUAGCAAUAUUACGGUCC,-3.46 ± 1.1,
CAGGAGCAAUAUUACGCAUU,-3.04 ± 0.62,
GCAGAGCAAUAUUACGUUUA,,-2.83 ± 0.61
UGCGAGCAAUAUUACGCUCU,,-1.55 ± 0.53
UUUCAGCAAUAUUACGGCCC,-2.09 ± 1.4,-1.33 ± 0.54
GUUAAGCAAUAUUACGAAGG,-2.17 ± 0.18,-1.87 ± 0.28
UGUGAGCAAUAUUACGAUAC,-3 ± 0.62,-3.17 ± 1
CAGGAGCAAUAUUACGAACA,-3.59 ± 0.6,-2.16 ± 1.1

Sequence,self-splicing fitness (ln) (30 °C),self-splicing fitness (ln) (37 °C)
UCUUAGCAAUAUUACGAACC,-3.04 ± 0.68,-1.39 ± 0.87
CGGAAGCAAUAUUACGACGC,-2.39 ± 0.52,
GUGGAGCAAUAUUACGCGGC,-2.78 ± 0.54,-2.86 ± 1.1
CAAAAGCAAUAUUACGUACU,-2.74 ± 0.11,-0.995 ± 0.09
ACUCAGCAAUAUUACGGAGC,-3.55 ± 0.21,-1.76 ± 0.17
CUCUAGCAAUAUUACGGUAG,-4.49 ± 0.33,-1.79 ± 0.23
CAAGAGCAAUAUUACGGGAC,-4.03 ± 0.61,-2.75 ± 0.62
CAGAAGCAAUAUUACGGCCC,,-2.43 ± 0.77
AACAAGCAAUAUUACGGGGC,-4.29 ± 0.53,
GGGUAGCAAUAUUACGAAAA,,-2.07 ± 0.52
UUUGAGCAAUAUUACGGUCU,-3.28 ± 0.61,
UUGUAGCAAUAUUACGAGGA,-2.87 ± 0.85,-1.69 ± 1.2
AACGAGCAAUAUUACGAGUC,-4 ± 0.74,
UAUUAGCAAUAUUACGGUAC,-4.04 ± 1.1,0.947 ± 1.1
CAGAAGCAAUAUUACGAACC,-2.15 ± 0.55,-2.29 ± 1.1
CAAGAGCAAUAUUACGCACU,,-3.48 ± 0.52
AUGUAGCAAUAUUACGGAAG,-3.96 ± 0.59,
UGCGAGCAAUAUUACGUUCG,-3.12 ± 0.61,
GAUCAGCAAUAUUACGUCCU,-0.874 ± 0.1,-0.0507 ± 0.092
GAUGAGCAAUAUUACGUAGU,,-2.04 ± 0.56
CCUGAGCAAUAUUACGCCCU,-4.36 ± 0.73,
UGACAGCAAUAUUACGCGAG,-2.36 ± 0.11,-2.06 ± 0.077
CGAGAGCAAUAUUACGUUGA,,-1.68 ± 0.73
AUAUAGCAAUAUUACGUCAC,-3.36 ± 0.66,-1.01 ± 0.51

Sequence,self-splicing fitness (ln) (30 °C),self-splicing fitness (ln) (37 °C)
AGCCAGCAAUAUUACGAAUC,-3.16 ± 1,
UUGGAGCAAUAUUACGACUC,-1.3 ± 0.57,-2.39 ± 1.1
GUGUAGCAAUAUUACGUUCC,-3.23 ± 1,0.694 ± 1.1
CGUAAGCAAUAUUACGAAUA,-3.71 ± 0.52,-2.74 ± 0.61
UCGGAGCAAUAUUACGAGAA,-3.56 ± 0.63,-2.93 ± 0.74
GAGUAGCAAUAUUACGCUGA,-2.52 ± 0.8,
AUCUAGCAAUAUUACGCCCU,-0.479 ± 0.19,0.46 ± 0.19
CGGCAGCAAUAUUACGGGCU,-3.81 ± 0.22,-2.16 ± 0.24
UAGUAGCAAUAUUACGAAUC,,-2.79 ± 1.1
AUCGAGCAAUAUUACGGUCC,,-2.81 ± 0.74
UCAGAGCAAUAUUACGGACU,-3.92 ± 0.53,
CUAUAGCAAUAUUACGCCGC,-3.96 ± 1,
GUUCAGCAAUAUUACGGCCC,-0.59 ± 0.19,0.24 ± 0.24
GGGUAGCAAUAUUACGAACC,,0.875 ± 0.79
ACUGAGCAAUAUUACGUUGC,-4.87 ± 0.59,
UAUUAGCAAUAUUACGGAAC,-4.28 ± 0.73,-2.58 ± 0.62
GUUCAGCAAUAUUACGGAGA,-1.5 ± 0.64,
CCACAGCAAUAUUACGGCAU,-3.72 ± 0.16,-2.54 ± 0.18
UCUUAGCAAUAUUACGCCCU,-2.42 ± 1.2,-0.972 ± 0.52
UUCCAGCAAUAUUACGCUCG,-3.29 ± 0.52,
GCAGAGCAAUAUUACGCCUA,-3.13 ± 0.62,
UGGCAGCAAUAUUACGAAGC,-3.46 ± 0.75,
UUCGAGCAAUAUUACGUCGA,-5.01 ± 0.71,-1.49 ± 0.19
UAGGAGCAAUAUUACGAACA,,-1.04 ± 0.5

# Reprinted at random: 4 entries already listed.
Sequence,self-splicing fitness (ln) (30 °C),self-splicing fitness (ln) (37 °C)
AUCGAGCAAUAUUACGGUCC,,-2.81 ± 0.74
ACUCAGCAAUAUUACGGAGC,-3.55 ± 0.21,-1.76 ± 0.17
UCAGAGCAAUAUUACGGACU,-3.92 ± 0.53,
AACAAGCAAUAUUACGGGGC,-4.29 ± 0.53,

# Continued.

Sequence,self-splicing fitness (ln) (30 °C),self-splicing fitness (ln) (37 °C)
AGAGAGCAAUAUUACGCAGA,,-2.39 ± 0.55
GUGGAGCAAUAUUACGCAAA,-2.28 ± 0.43,-1.83 ± 0.25
UCAGAGCAAUAUUACGAACC,-3.11 ± 0.8,
CAACAGCAAUAUUACGAAAU,-2.7 ± 0.12,-2.47 ± 0.2
CUAUAGCAAUAUUACGGCCA,-2.03 ± 0.66,
GUCGAGCAAUAUUACGCCUA,-2.98 ± 0.79,
CCGGAGCAAUAUUACGAGAA,-2.09 ± 1.4,-2.18 ± 0.67
UUAGAGCAAUAUUACGGCUU,-2.83 ± 0.21,-1.79 ± 0.22
UUAGAGCAAUAUUACGGACC,-3.19 ± 0.82,
AUAAAGCAAUAUUACGAGGA,-3.28 ± 0.23,-1.74 ± 0.19
CUUGAGCAAUAUUACGAAGG,,-2.88 ± 0.75
CUCAAGCAAUAUUACGAAUC,-4.37 ± 0.72,
ACAAAGCAAUAUUACGUAGC,-2.35 ± 0.086,-2.01 ± 0.12
ACAGAGCAAUAUUACGUACC,-3.47 ± 0.54,-0.689 ± 0.52
AUCGAGCAAUAUUACGCAAC,-3.02 ± 0.65,-1.83 ± 1.1
UCGGAGCAAUAUUACGUAGC,-4.31 ± 1,-1.89 ± 0.57
UGAGAGCAAUAUUACGUGCC,-2.83 ± 0.56,
ACCGAGCAAUAUUACGCGCG,-4.42 ± 0.72,-3.01 ± 0.63
UCAGAGCAAUAUUACGAUAA,-4.5 ± 1,
AGUCAGCAAUAUUACGAAAC,-3.71 ± 0.73,
CUAAAGCAAUAUUACGCCUA,,-1.9 ± 0.57
AGGAAGCAAUAUUACGGCCC,-1.85 ± 0.88,
CUUGAGCAAUAUUACGAGCC,,-2.48 ± 0.77
